Test results taken from the supplement of paper PMC7666118.
Some of the results follow.

Chains of the proteins cited; added tags and fusions are not shown. Lines headed by an entry give the natural chain unless they say otherwise; changes in a name come on top.
UniProt P51665: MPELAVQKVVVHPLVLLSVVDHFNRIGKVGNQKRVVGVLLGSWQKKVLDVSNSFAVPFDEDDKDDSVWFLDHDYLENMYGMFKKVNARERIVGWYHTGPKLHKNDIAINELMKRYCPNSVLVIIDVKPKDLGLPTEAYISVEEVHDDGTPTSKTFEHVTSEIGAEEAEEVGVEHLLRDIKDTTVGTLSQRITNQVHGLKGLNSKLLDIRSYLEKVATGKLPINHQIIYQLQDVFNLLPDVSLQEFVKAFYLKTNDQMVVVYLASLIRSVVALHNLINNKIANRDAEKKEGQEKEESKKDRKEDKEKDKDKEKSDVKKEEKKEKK
UniProt Q9UMS4: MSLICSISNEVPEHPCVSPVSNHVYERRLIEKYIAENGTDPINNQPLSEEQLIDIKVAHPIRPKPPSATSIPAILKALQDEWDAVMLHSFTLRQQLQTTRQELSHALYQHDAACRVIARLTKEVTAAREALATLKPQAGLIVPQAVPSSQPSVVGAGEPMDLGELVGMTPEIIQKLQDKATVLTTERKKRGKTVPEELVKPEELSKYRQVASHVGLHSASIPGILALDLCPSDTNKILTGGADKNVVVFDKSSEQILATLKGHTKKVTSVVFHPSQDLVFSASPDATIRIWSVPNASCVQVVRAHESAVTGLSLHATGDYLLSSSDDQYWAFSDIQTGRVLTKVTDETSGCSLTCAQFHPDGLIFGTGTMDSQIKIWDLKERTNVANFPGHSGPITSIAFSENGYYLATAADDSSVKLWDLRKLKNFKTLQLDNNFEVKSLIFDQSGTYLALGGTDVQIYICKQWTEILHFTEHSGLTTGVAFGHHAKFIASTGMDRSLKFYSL
UniProt Q8WU10: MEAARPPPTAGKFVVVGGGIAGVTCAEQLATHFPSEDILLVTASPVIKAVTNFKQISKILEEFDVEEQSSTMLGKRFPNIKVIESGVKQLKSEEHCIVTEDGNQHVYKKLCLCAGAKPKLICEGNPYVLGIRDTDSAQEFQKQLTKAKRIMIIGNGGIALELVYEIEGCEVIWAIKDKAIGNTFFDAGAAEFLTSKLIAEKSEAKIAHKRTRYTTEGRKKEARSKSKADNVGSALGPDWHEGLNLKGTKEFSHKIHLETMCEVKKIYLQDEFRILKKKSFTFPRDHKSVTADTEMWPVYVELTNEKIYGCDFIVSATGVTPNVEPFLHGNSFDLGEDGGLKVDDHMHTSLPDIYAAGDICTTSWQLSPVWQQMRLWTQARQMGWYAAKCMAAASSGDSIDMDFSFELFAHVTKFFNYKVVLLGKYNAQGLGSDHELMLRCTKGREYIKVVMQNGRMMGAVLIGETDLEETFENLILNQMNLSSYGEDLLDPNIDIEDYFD
UniProt P28066: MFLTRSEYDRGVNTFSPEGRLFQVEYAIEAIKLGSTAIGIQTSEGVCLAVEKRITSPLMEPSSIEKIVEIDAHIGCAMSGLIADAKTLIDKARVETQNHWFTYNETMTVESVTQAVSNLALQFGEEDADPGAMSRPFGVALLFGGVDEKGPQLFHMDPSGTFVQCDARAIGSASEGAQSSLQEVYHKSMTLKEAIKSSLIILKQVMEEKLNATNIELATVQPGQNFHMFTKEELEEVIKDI
UniProt Q9ULZ3, whole entry: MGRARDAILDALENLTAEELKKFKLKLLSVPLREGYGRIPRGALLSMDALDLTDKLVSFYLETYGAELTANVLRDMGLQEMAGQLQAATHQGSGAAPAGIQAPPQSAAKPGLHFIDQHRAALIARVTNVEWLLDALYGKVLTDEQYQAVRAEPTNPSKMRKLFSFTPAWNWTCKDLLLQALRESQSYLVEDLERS
UniProt P20618: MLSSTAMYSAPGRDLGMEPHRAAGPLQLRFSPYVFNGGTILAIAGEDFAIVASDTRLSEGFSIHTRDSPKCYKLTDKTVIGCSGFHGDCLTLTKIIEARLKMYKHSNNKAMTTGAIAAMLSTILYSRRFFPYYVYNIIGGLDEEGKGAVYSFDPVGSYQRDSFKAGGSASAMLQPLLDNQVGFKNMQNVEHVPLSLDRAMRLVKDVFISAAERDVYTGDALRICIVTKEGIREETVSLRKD
UniProt Q99633: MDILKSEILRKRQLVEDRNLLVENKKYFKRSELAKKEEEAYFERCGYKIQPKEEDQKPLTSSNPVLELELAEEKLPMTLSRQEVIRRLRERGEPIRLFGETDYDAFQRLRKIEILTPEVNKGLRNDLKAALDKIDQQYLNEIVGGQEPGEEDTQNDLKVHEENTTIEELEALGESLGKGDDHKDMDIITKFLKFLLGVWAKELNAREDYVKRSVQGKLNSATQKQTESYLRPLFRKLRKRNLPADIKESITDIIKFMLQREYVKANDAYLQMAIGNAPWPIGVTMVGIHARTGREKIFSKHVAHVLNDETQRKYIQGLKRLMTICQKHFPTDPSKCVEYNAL
UniProt Q15032: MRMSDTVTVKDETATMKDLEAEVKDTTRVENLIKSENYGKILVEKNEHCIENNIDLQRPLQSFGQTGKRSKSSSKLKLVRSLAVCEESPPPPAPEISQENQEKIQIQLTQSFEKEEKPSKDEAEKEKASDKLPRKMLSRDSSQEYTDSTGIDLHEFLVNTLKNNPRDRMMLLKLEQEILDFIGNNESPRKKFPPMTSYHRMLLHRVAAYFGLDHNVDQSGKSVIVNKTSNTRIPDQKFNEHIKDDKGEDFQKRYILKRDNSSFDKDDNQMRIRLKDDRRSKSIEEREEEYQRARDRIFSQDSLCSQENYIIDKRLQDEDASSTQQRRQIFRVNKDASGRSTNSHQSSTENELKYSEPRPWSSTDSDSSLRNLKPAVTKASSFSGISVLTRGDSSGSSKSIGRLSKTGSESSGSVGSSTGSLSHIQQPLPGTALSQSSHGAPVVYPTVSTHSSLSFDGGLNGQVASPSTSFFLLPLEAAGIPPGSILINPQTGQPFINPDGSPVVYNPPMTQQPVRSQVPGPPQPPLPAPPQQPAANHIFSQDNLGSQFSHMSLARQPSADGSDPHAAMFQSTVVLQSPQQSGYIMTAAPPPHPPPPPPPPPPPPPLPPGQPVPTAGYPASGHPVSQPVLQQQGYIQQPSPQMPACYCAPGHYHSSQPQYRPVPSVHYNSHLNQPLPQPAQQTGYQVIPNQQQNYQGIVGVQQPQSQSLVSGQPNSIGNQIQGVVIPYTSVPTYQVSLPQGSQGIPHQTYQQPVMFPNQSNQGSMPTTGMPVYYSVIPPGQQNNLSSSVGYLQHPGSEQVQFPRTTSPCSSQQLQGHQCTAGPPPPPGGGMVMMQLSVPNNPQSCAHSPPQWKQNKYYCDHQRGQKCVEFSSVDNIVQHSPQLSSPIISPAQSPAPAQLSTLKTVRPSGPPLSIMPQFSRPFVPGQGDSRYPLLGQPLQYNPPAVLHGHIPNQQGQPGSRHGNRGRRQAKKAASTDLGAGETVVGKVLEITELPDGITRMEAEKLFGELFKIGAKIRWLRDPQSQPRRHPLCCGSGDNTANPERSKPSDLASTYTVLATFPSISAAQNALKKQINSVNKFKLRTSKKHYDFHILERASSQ
UniProt Q99708: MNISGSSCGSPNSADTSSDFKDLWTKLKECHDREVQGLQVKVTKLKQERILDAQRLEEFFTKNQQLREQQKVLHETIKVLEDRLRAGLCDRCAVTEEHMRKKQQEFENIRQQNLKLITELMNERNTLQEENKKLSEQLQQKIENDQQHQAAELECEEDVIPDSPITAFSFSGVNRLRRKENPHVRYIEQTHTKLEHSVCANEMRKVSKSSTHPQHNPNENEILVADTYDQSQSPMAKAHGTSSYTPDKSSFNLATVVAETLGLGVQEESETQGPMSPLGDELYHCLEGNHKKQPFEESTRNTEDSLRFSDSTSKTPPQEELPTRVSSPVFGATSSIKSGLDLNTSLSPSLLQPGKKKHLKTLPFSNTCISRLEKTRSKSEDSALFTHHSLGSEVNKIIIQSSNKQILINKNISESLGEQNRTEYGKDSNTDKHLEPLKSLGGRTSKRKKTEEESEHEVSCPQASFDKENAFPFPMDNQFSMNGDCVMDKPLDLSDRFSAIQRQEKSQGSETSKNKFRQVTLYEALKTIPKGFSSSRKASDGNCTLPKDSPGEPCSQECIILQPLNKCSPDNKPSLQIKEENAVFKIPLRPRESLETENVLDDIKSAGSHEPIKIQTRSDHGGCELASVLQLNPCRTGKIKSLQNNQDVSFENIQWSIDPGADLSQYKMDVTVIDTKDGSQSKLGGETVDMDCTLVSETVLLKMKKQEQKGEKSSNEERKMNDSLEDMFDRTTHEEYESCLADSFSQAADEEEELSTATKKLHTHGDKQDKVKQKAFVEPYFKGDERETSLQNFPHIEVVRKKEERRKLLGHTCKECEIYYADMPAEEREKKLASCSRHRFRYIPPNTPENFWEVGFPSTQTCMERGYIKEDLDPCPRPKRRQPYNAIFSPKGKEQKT
UniProt Q15185: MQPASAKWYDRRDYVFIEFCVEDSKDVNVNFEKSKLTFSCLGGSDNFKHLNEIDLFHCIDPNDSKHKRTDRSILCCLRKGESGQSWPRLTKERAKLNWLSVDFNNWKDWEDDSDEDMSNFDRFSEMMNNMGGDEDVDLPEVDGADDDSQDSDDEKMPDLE
UniProt Q96PZ0: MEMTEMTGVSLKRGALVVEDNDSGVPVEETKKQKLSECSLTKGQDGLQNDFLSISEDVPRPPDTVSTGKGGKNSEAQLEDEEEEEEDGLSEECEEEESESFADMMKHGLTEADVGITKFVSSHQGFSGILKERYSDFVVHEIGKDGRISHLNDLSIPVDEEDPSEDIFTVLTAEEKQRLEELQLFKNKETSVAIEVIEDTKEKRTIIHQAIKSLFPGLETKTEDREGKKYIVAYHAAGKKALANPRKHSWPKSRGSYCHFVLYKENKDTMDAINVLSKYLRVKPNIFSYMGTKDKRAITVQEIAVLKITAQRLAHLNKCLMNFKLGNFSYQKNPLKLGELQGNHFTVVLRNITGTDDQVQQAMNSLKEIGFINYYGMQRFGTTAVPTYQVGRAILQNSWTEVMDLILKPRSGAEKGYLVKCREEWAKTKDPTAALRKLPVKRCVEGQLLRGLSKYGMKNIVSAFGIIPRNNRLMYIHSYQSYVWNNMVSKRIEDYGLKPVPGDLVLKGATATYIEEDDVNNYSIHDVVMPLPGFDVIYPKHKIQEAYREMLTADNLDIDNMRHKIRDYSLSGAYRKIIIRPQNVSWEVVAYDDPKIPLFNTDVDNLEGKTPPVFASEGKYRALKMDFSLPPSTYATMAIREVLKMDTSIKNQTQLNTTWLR
UniProt Q9H5N1: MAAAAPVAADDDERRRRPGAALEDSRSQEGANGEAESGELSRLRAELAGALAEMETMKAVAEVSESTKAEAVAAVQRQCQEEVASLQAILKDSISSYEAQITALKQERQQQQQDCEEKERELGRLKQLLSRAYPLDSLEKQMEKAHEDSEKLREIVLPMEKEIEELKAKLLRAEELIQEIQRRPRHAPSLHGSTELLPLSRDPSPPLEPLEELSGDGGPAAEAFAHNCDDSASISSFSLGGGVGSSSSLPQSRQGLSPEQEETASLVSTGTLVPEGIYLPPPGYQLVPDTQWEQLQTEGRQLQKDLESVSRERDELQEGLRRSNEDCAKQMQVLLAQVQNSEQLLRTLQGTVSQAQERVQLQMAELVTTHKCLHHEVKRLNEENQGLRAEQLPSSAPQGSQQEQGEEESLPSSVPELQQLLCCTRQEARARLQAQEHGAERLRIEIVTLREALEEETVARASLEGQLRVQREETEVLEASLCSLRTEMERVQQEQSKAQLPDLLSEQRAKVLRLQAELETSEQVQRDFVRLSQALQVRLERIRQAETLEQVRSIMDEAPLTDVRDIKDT
UniProt Q12974: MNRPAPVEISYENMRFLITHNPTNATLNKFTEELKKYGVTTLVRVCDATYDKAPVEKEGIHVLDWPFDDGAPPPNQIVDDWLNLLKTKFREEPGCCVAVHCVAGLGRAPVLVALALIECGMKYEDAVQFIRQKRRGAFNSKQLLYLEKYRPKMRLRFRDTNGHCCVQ
UniProt O43395: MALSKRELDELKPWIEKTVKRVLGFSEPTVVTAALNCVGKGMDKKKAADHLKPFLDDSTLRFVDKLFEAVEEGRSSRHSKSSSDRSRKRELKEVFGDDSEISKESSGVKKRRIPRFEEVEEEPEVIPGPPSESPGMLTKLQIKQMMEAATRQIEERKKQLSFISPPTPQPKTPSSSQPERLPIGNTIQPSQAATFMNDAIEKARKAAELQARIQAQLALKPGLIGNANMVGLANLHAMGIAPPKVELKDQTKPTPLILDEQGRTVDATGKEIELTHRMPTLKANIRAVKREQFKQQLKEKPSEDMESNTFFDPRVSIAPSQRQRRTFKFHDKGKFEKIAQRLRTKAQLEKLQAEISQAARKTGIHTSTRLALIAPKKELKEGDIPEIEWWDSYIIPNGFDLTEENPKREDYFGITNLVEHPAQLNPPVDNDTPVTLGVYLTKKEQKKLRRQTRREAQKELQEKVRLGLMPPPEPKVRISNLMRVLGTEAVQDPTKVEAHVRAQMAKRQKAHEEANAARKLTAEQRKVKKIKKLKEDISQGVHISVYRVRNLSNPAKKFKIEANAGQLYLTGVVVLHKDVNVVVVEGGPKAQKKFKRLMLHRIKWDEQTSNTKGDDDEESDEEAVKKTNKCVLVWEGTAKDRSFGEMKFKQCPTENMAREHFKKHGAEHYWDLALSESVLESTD

These targets were tested with COc1ccc(Cn2ccc3ccc(C(=O)NO)cc32)cc1 (assay: dose-dependent thermal stabilisation call (2D-TPP, DLPTP, 10% FDR) (binary (1 = stabilised)); higher = stabilised by the compound). Settings: system: HL-60 intact cells; concentration range 0.04-10 µM.

Target	dose-dependent thermal stabilisation call
PSMD7 (UniProt P51665)	inactive: 0
RAB10 (UniProt P61026)	inactive: 0
PSMB7 (UniProt Q99436)	inactive: 0
RBKS (UniProt Q9H477)	inactive: 0
PRPF31 (UniProt Q8WWY3)	inactive: 0
PRPF19 (UniProt Q9UMS4)	inactive: 0
RAB7L1 (UniProt O14966)	inactive: 0
PTGS1 (UniProt P23219)	inactive: 0
RBM7 (UniProt Q9Y580)	inactive: 0
RAB3C (UniProt Q96E17)	inactive: 0
PYROXD1 (UniProt Q8WU10)	inactive: 0
PSMA5 (UniProt P28066)	inactive: 0
PYCARD (UniProt Q9ULZ3)	inactive: 0
RAVER1 (UniProt Q8IY67)	inactive: 0
RAPGEF6 (UniProt Q8TEU7)	inactive: 0
RAD23B (UniProt P54727)	active: 1
PTCD1 (UniProt O75127)	inactive: 0
PSMB1 (UniProt P20618)	inactive: 0
RALY (UniProt Q9UKM9)	inactive: 0

Target	dose-dependent thermal stabilisation call
PRPF18 (UniProt Q99633)	inactive: 0
R3HDM1 (UniProt Q15032)	inactive: 0
RBBP8 (UniProt Q99708)	inactive: 0
RABGAP1L	inactive: 0
RBM22 (UniProt Q9NW64)	inactive: 0
PSAP (UniProt P07602)	inactive: 0
PTGES3 (UniProt Q15185)	inactive: 0
PUS7 (UniProt Q96PZ0)	inactive: 0
PTPRF (UniProt P10586)	inactive: 0
PSPH (UniProt P78330)	inactive: 0
RAB3A (UniProt P20336)	inactive: 0
RABEP2 (UniProt Q9H5N1)	inactive: 0
PSMB6 (UniProt P28072)	inactive: 0
PTP4A2 (UniProt Q12974)	inactive: 0
RAB32 (UniProt Q13637)	inactive: 0
RABGGTA (UniProt Q92696)	inactive: 0
PRPF3 (UniProt O43395)	inactive: 0
PRPF39 (UniProt Q86UA1)	inactive: 0
PSMC1 (UniProt P62191)	inactive: 0

Some of the entries so far, in markdown.

| Target | dose-dependent thermal stabilisation call |
| --- | --- |
| RBM22 (UniProt Q9NW64) | inactive: 0 |
| PSMC1 (UniProt P62191) | inactive: 0 |
